For one molecule, binding results are on record in paper doi:10.1101/2020.01.21.913814.

These are yes or no findings as the source states them, for the method shown. Some binding calls cover weakened binding; strength is not graded here. Tags and fused reporters may be left off the sequences shown.

For the test, the target named is T1, His-tagged Arabidopsis thaliana full-length UVR8 (UV … LOCUS 8) (Arabidopsis thaliana), Q9FN03.
T1 chain: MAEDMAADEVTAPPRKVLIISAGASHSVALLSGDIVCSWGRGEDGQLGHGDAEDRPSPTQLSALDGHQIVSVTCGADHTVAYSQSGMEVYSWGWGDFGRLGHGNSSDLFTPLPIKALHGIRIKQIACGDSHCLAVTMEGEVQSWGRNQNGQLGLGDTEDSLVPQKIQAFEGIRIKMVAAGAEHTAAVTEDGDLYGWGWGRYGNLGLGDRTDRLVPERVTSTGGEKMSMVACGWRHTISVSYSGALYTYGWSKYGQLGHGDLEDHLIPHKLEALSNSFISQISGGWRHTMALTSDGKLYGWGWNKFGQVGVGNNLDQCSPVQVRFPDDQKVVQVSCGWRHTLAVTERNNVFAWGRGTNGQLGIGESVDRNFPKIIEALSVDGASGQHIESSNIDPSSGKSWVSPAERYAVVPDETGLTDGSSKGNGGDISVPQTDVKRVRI
Kind of test: SDS-PAGE without boiling. The conditions noted are these: remark: other sources report otherwise.

B1: His-tagged Arabidopsis thaliana full-length UVR8 (UV … LOCUS 8), Q9FN03 1-440 (natural protein)
chain: MAEDMAADEVTAPPRKVLIISAGASHSVALLSGDIVCSWGRGEDGQLGHGDAEDRPSPTQLSALDGHQIVSVTCGADHTVAYSQSGMEVYSWGWGDFGRLGHGNSSDLFTPLPIKALHGIRIKQIACGDSHCLAVTMEGEVQSWGRNQNGQLGLGDTEDSLVPQKIQAFEGIRIKMVAAGAEHTAAVTEDGDLYGWGWGRYGNLGLGDRTDRLVPERVTSTGGEKMSMVACGWRHTISVSYSGALYTYGWSKYGQLGHGDLEDHLIPHKLEALSNSFISQISGGWRHTMALTSDGKLYGWGWNKFGQVGVGNNLDQCSPVQVRFPDDQKVVQVSCGWRHTLAVTERNNVFAWGRGTNGQLGIGESVDRNFPKIIEALSVDGASGQHIESSNIDPSSGKSWVSPAERYAVVPDETGLTDGSSKGNGGDISVPQTDVKRVRI
With B1, the binding result was “binds”.
